The text below walks through data of PubChem BioAssay AID2685 (National Center for Advancing Translational Sciences (NCATS), 2010).

The experiment can be described thus: qHTS Assay for Lipid Storage Modulators in Drosophila S3 Cells.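 For cell number change: cells counted by Cell Tracker Red CMTPX staining in the red channel.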 The note with it: BODIPY lipid droplet fluorescence, 18-24 h; for cell number change: measured here: cell count max response, cells fed with added oleic acid. The method, boiled down:
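Laser-scanning cytometry quantifies lipid droplet accumulation (500–530 nm total intensity; droplet/cell object ratio) in oleic acid-fed (400 uM added) Drosophila S3 cells treated with a concentration series. 20 uM Triacsin C defined 100% inhibition.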

Where [1] appears, read: measured here: cell number channel AC50, cells fed with added oleic acid.
[2] abbreviates: measured here: lipid fluorescence (Fed channel) AC50, cells fed with added oleic acid.

The other results are listed elsewhere or left out. These are further read-outs of the screen, such as a control signal, another cell line or another target. No call is given for them. The list favours compounds with an active or inconclusive main result. Words in brackets tell the shape of the fitted curve; partial curves, single points and poor fits give uncertain potencies.

`COc1ccccc1CNC(=O)CN1C(=O)COc2ccc(S(=O)(=O)NC3CCCC3)cc21`: the cell number change was -0.494%. Besides, the AC50 under setting [1] was 0.00517 µM [rising, full curve, poor fit].

Turning to `COc1cc(C(=O)OCC(=O)c2cc(C)n(C)c2C)cc(OC)c1OC`, the cell number change was -6.57%. Under setting [2], the AC50 was 29.1 µM [rising, single point].

On to `O=C(CNC(=O)c1cc2c(s1)CCC2)Nc1ccccc1Br`, for which the cell number change worked out at 34.7%. Besides, under setting [1], the AC50 was 29.1 µM [rising, single point].

For the compound `COc1cccc(OCCOc2ccc(/C=C3/SC(=S)NC3=O)cc2)c1`, the AC50 under setting [2] was 2.91 µM [rising, single point].

In the case of `CC(=O)Nc1ccc(C(=O)COC(=O)c2cccs2)c(F)c1`, the cell number change was -14%. The AC50 under setting [2] is 0.116 µM [falling, full curve, poor fit].

In the case of `CC(=O)N1CCN(C2=Nc3cccc4cccc2c34)CC1`, the cell number change amounted to 25.6%. Moreover, the AC50 under setting [1] was 3.66 µM [rising, partial curve, poor fit]. Besides, under setting [2], the AC50 was 2.06 µM [rising, full curve].

`Cc1cccc(OCC(=O)Nc2cc(NC(=O)COc3cccc(C)c3)cc(C(=O)O)c2)c1`: the cell number change turned out to be 2.38%. For the same compound, the AC50 under setting [2] was 0.116 µM [rising, full curve, poor fit].

For `COc1ccc(CCNC(=O)Cc2cccc(C(F)(F)F)c2)cc1OC`, the cell number change came out at 23.4%.

Regarding `CCn1c(SCC(=O)Nc2ccc(C(C)=O)cc2)nc2nc3c(cc2c1=O)CCCC3`, the cell number change is -153%. The AC50 under setting [1] was 23.1 µM [falling, single point].

In the case of `CCC(=O)N/C(=N/c1nc(C)cc(C)n1)Nc1ccccc1`, the cell number change came out at 5.34%. Also, the AC50 under setting [2] was 0.13 µM [rising, full curve, poor fit].

In the case of `Cn1c(SCC(=O)c2c(N)n(C)c(=O)n(C)c2=O)nnc1-c1ccccc1F`, the cell number change stood at 39.9%. For the same compound, the AC50 under setting [1] was 11.6 µM [rising, partial curve, poor fit]. In addition, under setting [2], the AC50 was 18.4 µM [rising, partial curve, poor fit].

In the case of `CC(=O)c1ccc(S(=O)(=O)NCCC(=O)NC(C)c2ccncc2)cc1` (centres undefined), the cell number change stood at 37.2%. The AC50 under setting [1] was 2.91 µM [falling, single point]. Moreover, the AC50 under setting [2] is 0.103 µM [rising, full curve, poor fit].

With `O=C(c1cc2ccccc2oc1=O)N(Cc1cccs1)CC1CCCO1` (centres undefined), the cell number change was -7.75%. In addition, under setting [2], the AC50 is 0.731 µM [falling, single point].

For the compound `Cc1c(NC(=O)CSc2nnnn2-c2ccc(C(=O)O)cc2)c(=O)n(-c2ccccc2)n1C`, the cell number change is 21.2%. In addition, the AC50 under setting [2] was 0.146 µM [rising, full curve, poor fit].

Regarding `CSCCC1COC(c2cccs2)=N1` (centres undefined), the cell number change was -22.5%. For the same compound, the AC50 under setting [2] was 14.6 µM [falling, partial curve, poor fit].

Consider `CCOC(=O)Cc1nnc(NC(=O)c2ccccc2OC)s1`, for which the cell number change was -19.3%. Further, under setting [2], the AC50 is 29.1 µM [falling, single point].

Turning to `Cc1ccc(NC(=O)CC2S/C(=N/N=C3\CCCc4ccccc43)NC2=O)cc1` (centres undefined), the cell number change was 2.12%. The AC50 under setting [2] is 0.103 µM [falling, full curve, poor fit].

With `C/C=C/c1ccc(OCCCCOc2ccccc2C(C)=O)c(OC)c1`, the cell number change was -5.63%. Moreover, the AC50 under setting [2] is 0.517 µM [rising, single point].

For `Cc1ccc(S(=O)(=O)N2CCCCC2)cc1NC(=O)C1=NN(c2ccccc2)C(=O)CC1`, the cell number change was determined as 4.03%.

Regarding `CCN(CC)C(=O)N1CCC(NC(=O)Cc2ccccc2)CC1`, the cell number change is -26.4%. Further, under setting [1], the AC50 was 6.51 µM [falling, partial curve, poor fit]. Besides, under setting [2], the AC50 is 0.164 µM [falling, full curve, poor fit].

With `COc1ccccc1NS(=O)(=O)c1cc(NC(=O)c2ccccc2F)ccc1N1CCOCC1`, the AC50 under setting [2] was 0.0058 µM [falling, full curve, poor fit].

Turning to `Cc1nnc(SCC(=O)Nc2ncc3c(n2)CC(C)(C)CC3=O)s1`, the cell number change was -14.3%. Under setting [2], the concentration at half-maximal activity (AC50) was 29.1 µM [rising, single point].

With `Cc1cccc(-n2c(SCC(=O)Nc3nnc(C)s3)nnc2-c2ccoc2C)c1`, the cell number change was -7.67%.

Regarding `CCN(Cc1ccccc1)S(=O)(=O)c1ccc(C(=O)Nc2nnc(-c3ccccc3OC)o2)cc1`, the AC50 reads like this: under setting [1], 5.17 µM [falling, single point]; under setting [2], 4.11 µM [falling, single point].

On to `O=C(COc1ccccc1)OCc1cc2ccccc2[nH]c1=O`, for which the cell number change was -1.48%. Besides, the AC50 under setting [2] is 0.116 µM [falling, full curve].

In the case of `CC(N=C1NS(=O)(=O)c2ccccc21)C(=O)OCC(=O)N(C)C1CCS(=O)(=O)C1` (centres undefined), the cell number change is 40.9%. Under setting [1], the AC50 was 32.6 µM [rising, single point]. Further, the AC50 under setting [2] was 14.6 µM [falling, partial curve].

Take `CCOc1ccc(NC(=O)CN(C)C(=O)CC2CCCCC2)cc1OCC`: the cell number change is -5.18%. Also, the AC50 under setting [2] was 0.00461 µM [rising, full curve, poor fit].

Take `COc1ccccc1OCC(=O)NNc1c2ccccc2nc2ccccc12`: the cell number change is -72.9%. Further, under setting [1], the AC50 was 3.26 µM [falling, partial curve]. Further, under setting [2], the AC50 was 2.06 µM [falling, full curve].

For the compound `O=C(O)c1ccc2c(=O)n3c(nc2c1)/C(=C/c1ccccc1Br)CC3`, the cell number change is -20%. The AC50 under setting [2] was 6.51 µM [rising, single point].

In the case of `Cc1cccc(NC(=O)c2ccc(C3SCC(=O)N3CCc3ccccc3)cc2)c1` (centres undefined), the cell number change stood at 2.56%. Moreover, the AC50 under setting [2] is 20.6 µM [falling, single point].

For `CCNc1nc(NCC)n2c(SC(C(=O)Nc3cc(C)ccc3C)c3ccccc3)nnc2n1` (centres undefined), under setting [2], the AC50 was 1.84 µM [rising, full curve].

On to `Cc1onc(-c2ccccc2Cl)c1C(=O)Nc1nnc(Cc2ccc(Cl)cc2)s1`, for which the cell number change stood at 2.67%. The AC50 under setting [1] is 0.92 µM [falling, full curve, poor fit]. Also, under setting [2], the AC50 is 0.731 µM [falling, full curve, poor fit].

For `Cc1ccc(S(=O)(=O)N[C@H](C(=O)OCC(=O)N2N=C(c3ccc(Cl)cc3)CC2c2ccco2)C(C)C)cc1` (some centres undefined), the cell number change is -20.3%. For the same compound, the AC50 under setting [2] was 23.1 µM [falling, single point].

For `CCCCNC(=S)Nc1ccccc1Cc1ccccc1`, the cell number change was determined as 16.2%. Under setting [2], the AC50 is 0.103 µM [rising, full curve, poor fit].

Regarding `COc1ccc(NC(C)C(=O)Nc2ccc(C(C)(C)C)cc2)cc1Cl` (centres undefined), the cell number change is -6.04%. Moreover, the AC50 under setting [2] is 0.13 µM [falling, full curve, poor fit].

`Cc1cc(NC(=O)CSc2n[nH]c(-c3cccs3)n2)no1`: the cell number change is 97.2%. In addition, the AC50 under setting [1] was 13 µM [rising, partial curve]. The AC50 under setting [2] was 3.26 µM [rising, full curve].

In the case of `O=C(CN(c1ccc(Cl)c(C(F)(F)F)c1)S(=O)(=O)c1ccccc1)N1CCOCC1`, the cell number change was -16.2%.

As for `Cc1nc2c(nnn2Cc2ccccc2Cl)c(=O)[nH]1`, the cell number change was found to be 20.4%. For the same compound, the AC50 under setting [1] is 1.16 µM [rising, full curve, poor fit].

On to `COc1cc(Br)cc(C2C3=C(CCCC3=O)N(c3ccc(F)cc3)C3=C2C(=O)CCC3)c1O`, for which the cell number change is -22.2%. Further, the AC50 under setting [2] is 25.9 µM [falling, single point].

Take `C#CCOCCOCCOCCNc1nc(N2CCN(C(=O)CCCCCCCCCCNC(=O)[C@@H](CCSC)n3cc(CCO)nn3)CC2)nc(N2CCN(C(=O)CCCCCCCCCCNC(=O)[C@H](CO)n3cc(CCCCCN)nn3)CC2)n1`: the cell number change is -64.4%. For the same compound, the AC50 under setting [1] was 18.4 µM [falling, partial curve].

Take `COc1ccc(-c2[nH]ncc2CN2CCCN(C(=O)c3ccco3)CC2)cc1F`: the cell number change is 26.1%. Also, the AC50 under setting [2] is 29.1 µM [rising, single point].

For the compound `Cc1ccc(-c2cc(C(=O)Nc3cccc(S(=O)(=O)N(C)C)c3)c3ccccc3n2)o1`, the cell number change amounted to 53.8%. In addition, the AC50 under setting [1] was 13 µM [rising, partial curve]. Moreover, under setting [2], the AC50 was 6.51 µM [falling, single point].

As for `CCc1nnc(NC(=O)C2CCCN(c3nc4ccccc4s3)C2)s1` (centres undefined), the cell number change is -32.4%. Moreover, the AC50 under setting [1] is 10.3 µM [falling, partial curve]. For the same compound, the AC50 under setting [2] was 29.1 µM [falling, single point].

Regarding `CC(=O)Nc1ccc(NC(=O)C(C)c2cccc(C(=O)c3ccccc3)c2)cc1` (centres undefined), the cell number change worked out at 24.6%. Moreover, under setting [2], the AC50 is 8.2 µM [rising, partial curve].

On to `Cc1ccccc1NC(=O)COc1coc(CN2CCCc3ccccc32)cc1=O`, for which the cell number change is -1.68%.

With `Cc1[nH]n(-c2cccc([N+](=O)[O-])c2)c(=O)c1-c1ccccc1`, the cell number change was -0.57%.

As for `Cc1ccc2c(c1)C(c1ccccc1)N(C(=O)c1c(F)cccc1Cl)CC(=O)N2` (centres undefined), the cell number change was -18.5%. In addition, under setting [2], the concentration at half-maximal activity (AC50) is 0.0082 µM [falling, full curve, poor fit].

As for `CCSc1nnc(-c2cc(Br)ccc2N=Cc2c(C)[nH]n(-c3ccccc3)c2=O)c(=O)[nH]1`, the cell number change is -29.4%. The AC50 under setting [2] was 14.6 µM [falling, partial curve, poor fit].

For `COc1cc(OC)cc(C(=O)Nc2ncc3c(n2)CC(C)CC3=O)c1` (centres undefined), the cell number change was -1.34%. Moreover, the AC50 under setting [2] was 5.8 µM [rising, full curve].

On to `C#CCOCCOCCOCCNc1nc(N2CCN(C(=O)CCCCCCCCCCNC(=O)[C@@H](CCC(=O)O)n3cc(CCCCCN)nn3)CC2)nc(N2CCN(C(=O)CCCCCCCCCCNC(=O)[C@H](CCCCN)n3cc(C[C@@H](C)CC)nn3)CC2)n1`, for which the cell number change was -32.3%. For the same compound, the AC50 under setting [1] was 32.6 µM [falling, single point].

Regarding `O=c1cc(CN2CCc3ccccc32)nc2sccn12`, the cell number change stood at 63.5%. Besides, under setting [1], the AC50 was 29.1 µM [rising, single point]. In addition, under setting [2], the AC50 is 0.58 µM [rising, single point].

Turning to `COc1cc(C(=O)OC(C)C(=O)NC(=O)NC2CCCCC2)ccc1OC(F)F` (centres undefined), the cell number change is -8.95%. Moreover, under setting [2], the AC50 is 0.0058 µM [falling, full curve, poor fit].

For the compound `CCOC(=O)c1cc(C)sc1/N=C/C1C(=O)CC(C)(C)CC1=O`, the cell number change came to 2.57%.

Consider `C=CCOC(=O)C1=C[C@@H](c2coc3ccccc3c2=O)C[C@@H](OCc2ccc(CO)cc2)O1`, for which the cell number change is 1.03%. Also, the AC50 under setting [2] was 0.0731 µM [rising, full curve, poor fit].
